{"source": "PubChem BioAssay AID1259308 (NCATS, 2017)", "aim": "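Knock-downs that increase output of a recombinant reporter protein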 (primary screen)", "cells": "human HEK293 embryonic kidney cells stably expressing firefly luciferase (HEK-CMV-Luc2-Hygro)", "knock-down reagent": "single siRNA against human genes, 0.8 pmol siRNA per well", "timing": "72 h", "read-out": "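Reporter luminescence and viable-cell signal on separate replicate plates, given as percent of non-targeting control and median/MAD z-scores, plus per-cell luciferase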", "reading the numbers": "total luciferase, z-score: higher = more reporter protein produced", "call rule": "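Active when the median/MAD z-score for overall luciferase is greater than 3; a gene was taken forward for validation with new siRNAs if at least two of its three siRNAs passed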", "calls": "active = raised luciferase; inactive = no rise", "note": "Shown is a random part of about 59,000 reagents tested. About 1,510 of them (2.6%) count as active. 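Calls use total luciferase alone and ignore viability, so some active siRNAs may act by altering cell number.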 Entries without a mark were called inactive. Reagents against one gene are numbered here. Further read-outs or replicates are left out here. Reagent sequences are not shown."}
{"gene": "CFAP99 (cilia and flagella associated protein 99)", "siRNA no.": 1, "total luciferase, z-score": 1.47}
{"gene": "CFAP99 (cilia and flagella associated protein 99)", "siRNA no.": 2, "total luciferase, z-score": 0.588}
{"gene": "CFAP99 (cilia and flagella associated protein 99)", "siRNA no.": 3, "total luciferase, z-score": "3.02 (active)"}
{"gene": "CFAP99 (cilia and flagella associated protein 99)", "siRNA no.": 4, "total luciferase, z-score": -1.14}
{"gene": "CFAP99 (cilia and flagella associated protein 99)", "siRNA no.": 5, "total luciferase, z-score": -0.475}
{"gene": "CFAP99 (cilia and flagella associated protein 99)", "siRNA no.": 6, "total luciferase, z-score": -1.41}
{"gene": "MEPE (matrix extracellular phosphoglycoprotein)", "siRNA no.": 1, "total luciferase, z-score": -0.316}
{"gene": "MEPE (matrix extracellular phosphoglycoprotein)", "siRNA no.": 2, "total luciferase, z-score": -0.916}
{"gene": "MEPE (matrix extracellular phosphoglycoprotein)", "siRNA no.": 3, "total luciferase, z-score": 1.39}
{"gene": "DENND1C (DENN domain containing 1C)", "siRNA no.": 1, "total luciferase, z-score": -0.601}
{"gene": "DENND1C (DENN domain containing 1C)", "siRNA no.": 2, "total luciferase, z-score": -0.923}
{"gene": "DENND1C (DENN domain containing 1C)", "siRNA no.": 3, "total luciferase, z-score": -0.349}

Targets listed so far whose target name begins with D or d (3):
{"gene": "DENND1C (DENN domain containing 1C)", "siRNA no.": 1, "total luciferase, z-score": -0.601}
{"gene": "DENND1C (DENN domain containing 1C)", "siRNA no.": 2, "total luciferase, z-score": -0.923}
{"gene": "DENND1C (DENN domain containing 1C)", "siRNA no.": 3, "total luciferase, z-score": -0.349}
